Measured values taken from PubChem BioAssay AID1688 (National Center for Advancing Translational Sciences (NCATS), 2009).
Screen size: about 220,000 compounds; about 2,400 (1.1%) were called active. This list was built around the results that the source calls inconclusive (neither active nor inactive); the mix of calls is not that of the screen. Calls come from the whole dose curve; as a rule, active = well fitted inhibition curve with a large enough effect; inconclusive = small, poorly fitted or top-dose-only effect, or effect the other way; inactive = no such curve, though single readings can be large or run the other way. A potency beside an inconclusive call is a rough fit, not a confirmed value.

assay: qHTS Multiplex Assay to Identify Dual Action Probes in a Cell Model of Huntington: Aggregate Formation (GFP); conditions: PC12 HttQ103-GFP aggregates, Acumen cytometry, 40 h; activity change, negative = inhibition: at 46.1 µM (top of the series) unless noted; note: nearly all actives have a fitted effect of over 60% in size
Procedure, shortened: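 PC12 cells with ecdysone-inducible HTT exon1 Q103-GFP, induced by 100 nM tebufenozide, given compounds in a concentration series. GFP aggregates (1–25 um, 6 SD above background) counted in lysates by laser-scanning cytometry, 488 nm excitation.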
% is set by controls: 0 for no effect and ±100 for the full control effect; potency is the fitted concentration of half-maximal effect.

SMILES | Potency | activity change, negative = inhibition
COCCNc1nc2c(c(=O)n(C)c(=O)n2C)n1Cc1cccc(C(F)(F)F)c1 | inconclusive: 11.2 µM [inhibitor, single point] | –
COc1cc(CC(=O)Nc2ccc(Cl)c(C(F)(F)F)c2)cc(OC)c1OC | active: 10 µM | –
CC1(C)Cc2c(sc3[nH]c(=S)n(Cc4ccccc4)c(=O)c23)CO1 | active: 17.8 µM | –
O=C(O)c1cc(Sc2ccc(Br)cc2)nc2ccccc12 | inconclusive: 3.16 µM [activator, partial curve] | –
COc1ccc(CNS(=O)(=O)c2ccc(F)c(C(=O)Nc3ccccc3OC)c2)cc1 | inconclusive: 3.98 µM [inhibitor, single point] | –
Cc1ccccc1Nc1nc2nonc2nc1N1CCOCC1 | inactive | –
COc1ccc(-c2nn(-c3ccccc3)cc2/C=N/NC(=O)c2ccc(Br)o2)cc1 | active: 3.55 µM | –
O=c1cc(-c2ccccc2Cl)oc2c(Br)ccc(O)c12 | inactive | –
COc1ccc2c(c1)nc1n2CN(CC2CCCO2)CN1Cc1ccccc1 (stereo not given) | inconclusive: 17.8 µM [activator, partial curve, poor fit] | –
O=c1[nH]c(CN2CCc3ccccc32)nc2scc(-c3cccs3)c12 | inactive | –
CC(Cc1cccs1)NC(=S)Nc1ccc(Cl)cc1 (stereo not given) | inconclusive: 35.5 µM [inhibitor, single point] | –
Cc1cccc(N2C(=O)/C(=C\c3ccc(C(=O)O)cc3)c3ccccc3C2=O)c1 | inconclusive: 0.708 µM [activator, full curve, poor fit] | –
Cc1ccc(C)c(S(=O)(=O)Nc2ccccc2C(=O)Nc2ccc(S(=O)(=O)Nc3ncccn3)cc2)c1 | inconclusive: 31.6 µM [activator, single point] | –
Cc1nc2ccc(NS(=O)(=O)c3ccc(F)cc3)cc2s1 | inconclusive: 20 µM [inhibitor, partial curve, poor fit] | –
Cc1nc2scc(-c3ccc(Cl)cc3)c2c(=O)n1N | inactive | –
COCCNC(=O)c1cccc(Nc2nc(-c3ccccc3)c3cc(Cl)ccc3n2)c1 | inconclusive: 35.5 µM [activator, single point] | –
O=C(NCc1cccs1)C12CC3CC(CC(C3)C1)C2 | inactive | –
Cc1cccc(N2CCC(N3CCN(C4CCCCC4)C(CCO)C3)CC2)c1C (stereo not given) | – | inactive: 27.9% [at 9.22 µM]
CN(CC(=O)NCCc1ccccc1)S(=O)(=O)c1cccc2nsnc12 | inactive | –
CCOc1ccc(Oc2c(/C=N/NC(N)=O)c(C)nn2-c2ccccc2)cc1 | inconclusive: 20 µM [activator, single point] | –
O=S(=O)(c1cccc(C(F)(F)F)c1)N1CCN(c2ccccc2)CC1 | inconclusive: 0.562 µM [inhibitor, full curve, poor fit] | –
COC(=O)c1cc(=O)n(CCc2ccc(OC)c(OC)c2)c(=Nc2ccc(F)c(Cl)c2)s1 | inconclusive: 20 µM [inhibitor, single point] | –
COc1ccc(C)cc1NC(=O)c1ccccc1NS(=O)(=O)c1ccc(Cl)s1 | active: 4.47 µM | –
CC1=NN(c2ccccc2)C(=O)/C1=C/C=C/c1ccc(N(C)C)cc1 | inconclusive: 35.5 µM [activator, partial curve] | –

SMILES | Potency | activity change, negative = inhibition
O=C(N/N=C/c1cccs1)c1cc(-c2cccc3ccccc23)n[nH]1 | inconclusive: 31.6 µM [inhibitor, single point] | –
CC(/C=C/c1ccc2c(c1)OCO2)=N\NC(=O)c1ccccc1 | inconclusive: 35.5 µM [inhibitor, single point] | –
CC(=O)OCC1OC(OC(C)=O)C(NC(=O)c2cccnc2)C(OC(C)=O)C1OC(C)=O (stereo not given) | inconclusive: 35.5 µM [activator, single point] | –
COc1ccccc1CP(=O)(c1ccccc1)c1ccccc1 | inconclusive: 5.01 µM [inhibitor, single point] | –
COc1cc(NS(=O)(=O)c2ccc(NC(C)=O)cc2)nc(OC)n1 | inconclusive: 0.562 µM [inhibitor, full curve] | –
O=C(CCCN1C(=O)/C(=C\c2cccc(Br)c2)SC1=S)Nc1cccnc1 | inconclusive: 35.5 µM [inhibitor, single point] | –
COc1cccc(CN2CCN(C(=S)NCc3ccc(Cl)cc3)CC2)c1 | inconclusive: 0.708 µM [activator, single point] | –
COCCCNS(=O)(=O)c1ccc2[nH]c(=O)[nH]c2c1 | inconclusive: 0.0002 µM [inhibitor] | –
NC(N)=N/N=C/c1ccc(OCc2ccccc2Cl)cc1 | inconclusive: 31.6 µM [inhibitor, single point] | –
CC(C)n1nc(C(=O)Oc2ccc(Cl)cc2)c2ccccc2c1=O | inconclusive: 12.6 µM [activator, partial curve] | –
COc1ccc(OCc2nnc(SCC(=O)N(C)Cc3ccccc3)n2N)cc1 | inactive | –
Fc1ccc(-c2cnn3c(-c4cccs4)ccnc23)cc1 | inactive | –
COc1ccc(-c2nn(-c3ccccc3)cc2/C=C\C(=O)N2CCOCC2)cc1[N+](=O)[O-] | inconclusive: 0.562 µM [activator, full curve, poor fit] | –
NS(=O)(=O)c1ccc(NC(=S)N2CCN(Cc3ccc(Cl)c(Cl)c3)CC2)cc1 | active: 22.4 µM | –
CN(C)S(=O)(=O)Oc1cccc(C(=O)Nc2ccc(Cl)cc2)c1 | inconclusive: 12.6 µM [inhibitor, single point] | –
Cc1ccc2c(n1)CC(C)(C)C/C2=N\O | inconclusive: 11.2 µM [inhibitor, partial curve] | –
CN(c1cccc(NS(=O)(=O)c2cccs2)c1)S(C)(=O)=O | inconclusive: 6.31 µM [inhibitor, partial curve, poor fit] | –
O=C(N/N=C/C1C(c2ccccc2)C1(Cl)Cl)c1cccc(Cl)c1 (stereo not given) | inactive | –
CSCCC1C(=O)OC2(C)CC(C)(C)NC(=S)N12 (stereo not given) | inactive | –
CC(=O)Oc1ccc(C(=O)Nc2cccc(C(=O)c3cccc(NC(=O)c4ccc(OC(C)=O)cc4)c3)c2)cc1 | inconclusive: 11.2 µM [inhibitor, partial curve] | –
CCOc1ccc(NC(=O)CC)cc1 | inactive | –
CCCC(C(=O)O)N1C(=O)/C(=C/c2cccn2C)SC1=S (stereo not given) | inconclusive: 2.51 µM [inhibitor, partial curve] | –
Cc1ccc(-c2noc(CSc3nnc(Cc4ccccc4)n3-c3ccc(Cl)cc3)n2)cc1 | active: 15.8 µM | –
COc1ccc(S(=O)(=O)N2CCCCC2)cc1NC(=O)CSc1ncnc2ccccc12 | inconclusive: 35.5 µM [activator, single point] | –

Compounds listed so far containing a Cl atom:
SMILES | Potency | activity change, negative = inhibition
COc1cc(CC(=O)Nc2ccc(Cl)c(C(F)(F)F)c2)cc(OC)c1OC | active: 10 µM | –
O=c1cc(-c2ccccc2Cl)oc2c(Br)ccc(O)c12 | inactive | –
CC(Cc1cccs1)NC(=S)Nc1ccc(Cl)cc1 (stereo not given) | inconclusive: 35.5 µM [inhibitor, single point] | –
Cc1nc2scc(-c3ccc(Cl)cc3)c2c(=O)n1N | inactive | –
COCCNC(=O)c1cccc(Nc2nc(-c3ccccc3)c3cc(Cl)ccc3n2)c1 | inconclusive: 35.5 µM [activator, single point] | –
COC(=O)c1cc(=O)n(CCc2ccc(OC)c(OC)c2)c(=Nc2ccc(F)c(Cl)c2)s1 | inconclusive: 20 µM [inhibitor, single point] | –
COc1ccc(C)cc1NC(=O)c1ccccc1NS(=O)(=O)c1ccc(Cl)s1 | active: 4.47 µM | –
COc1cccc(CN2CCN(C(=S)NCc3ccc(Cl)cc3)CC2)c1 | inconclusive: 0.708 µM [activator, single point] | –
NC(N)=N/N=C/c1ccc(OCc2ccccc2Cl)cc1 | inconclusive: 31.6 µM [inhibitor, single point] | –
CC(C)n1nc(C(=O)Oc2ccc(Cl)cc2)c2ccccc2c1=O | inconclusive: 12.6 µM [activator, partial curve] | –
NS(=O)(=O)c1ccc(NC(=S)N2CCN(Cc3ccc(Cl)c(Cl)c3)CC2)cc1 | active: 22.4 µM | –
CN(C)S(=O)(=O)Oc1cccc(C(=O)Nc2ccc(Cl)cc2)c1 | inconclusive: 12.6 µM [inhibitor, single point] | –
O=C(N/N=C/C1C(c2ccccc2)C1(Cl)Cl)c1cccc(Cl)c1 (stereo not given) | inactive | –
Cc1ccc(-c2noc(CSc3nnc(Cc4ccccc4)n3-c3ccc(Cl)cc3)n2)cc1 | active: 15.8 µM | –

More structures

SMILES | Potency | activity change, negative = inhibition
COC(=O)N/N=C/c1cc([N+](=O)[O-])cc(Br)c1O | inconclusive: 22.4 µM [inhibitor, single point] | –
O=C(CSc1nnc(NC(=O)Cc2ccccc2)s1)NCc1ccco1 | inconclusive: 7.94 µM [activator, partial curve] | –
Cc1cccn2c1nc(=S)n2C(=O)c1ccco1 | inconclusive: 10 µM [activator, partial curve] | –
O=C(c1ccccc1O)N1N=C(c2ccccc2)CC1(O)C(F)(F)F (stereo not given) | inconclusive: 35.5 µM [inhibitor, single point] | –
COc1cccc(/C=N/NC(=O)CN2CC(c3ccccc3)CC2=O)c1OC (stereo not given) | inconclusive: 2.51 µM [activator, partial curve, poor fit] | –
O=c1cc(C(Cl)(Cl)Cl)oc2c1ccc1ccccc12 | active: 7.08 µM | –
Fc1ccc(-c2nnc(CN3CCC(c4nc5ccccc5s4)CC3)o2)cc1 | active: 11.2 µM | –
CCOc1ccc(N2C(=O)Nc3ccccc3C2(O)C(=O)NCc2ccc(OC)cc2)cc1 (stereo not given) | active: 0.708 µM | –
c1ccc(CNc2nnnn2-c2ccccc2)cc1 | inconclusive: 25.1 µM [inhibitor, single point] | –
Cc1onc(-c2ccccc2)c1C(=O)N/N=C/c1cn(C)c2ccccc12 | inconclusive: 3.55 µM [inhibitor, partial curve] | –
Cc1ccc(C)c(OCC(=O)Nc2nc3ccc([N+](=O)[O-])cc3s2)c1C | inconclusive: 17.8 µM [inhibitor, single point] | –
COC(=O)Cc1c(C)[nH]n(-c2cc(Cl)cc(Cl)c2)c1=O | inactive | –
CCCn1nc(NC(=O)c2cccs2)c2cc3cc(OC)ccc3nc21 | inactive | –
O=C(CNC(=O)c1cccs1)N/N=C/c1ccc(O)cc1O | inactive | –
COc1cc(/C=N/NC(=O)C(=O)NCC2CCCO2)cc(Cl)c1O (stereo not given) | inconclusive: 0.1 µM [inhibitor, partial curve, poor fit] | –
CC(=O)Nc1nc(C)c(-c2csc(Nc3ccccn3)n2)s1 | inconclusive: 15.8 µM [inhibitor, single point] | –
CCc1cc2c(nc1CC)CCN(CC/C(C)=N/O[C@@H](C)c1cc(-c3c(C)cc(C)cc3C)no1)C2 | inconclusive: 3.16 µM [inhibitor, single point] | –
COc1ccc(/C=N\Nc2ccccc2[N+](=O)[O-])c(C(=O)O)c1OC | inconclusive: 0.112 µM [inhibitor, full curve, poor fit] | –
CS(=O)(=O)N1CCN(c2ccc(NC(=O)c3ccc([N+](=O)[O-])o3)cc2)CC1 | inconclusive: 6.31 µM [inhibitor, partial curve] | –
CN(C)c1cccc(C(=O)n2cc(C(=O)c3cc(F)ccc3O)cn2)c1 | inconclusive: 35.5 µM [inhibitor, single point] | –
O=C(OCc1nnc(-c2ccccc2)o1)c1cccnc1Cl | inactive | –
CCC(c1nnc(SCC(=O)Nc2cc(Cl)ccc2C#N)n1C1CCCCC1)N(C)C (stereo not given) | inactive | –

3 structures from above, sorted by molar mass, high to low.
SMILES | Potency | activity change, negative = inhibition
CCCn1nc(NC(=O)c2cccs2)c2cc3cc(OC)ccc3nc21 | inactive | –
COc1ccc(/C=N\Nc2ccccc2[N+](=O)[O-])c(C(=O)O)c1OC | inconclusive: 0.112 µM [inhibitor, full curve, poor fit] | –
O=C(CNC(=O)c1cccs1)N/N=C/c1ccc(O)cc1O | inactive | –
